In patent US4916068A, “Bioconversion production of ascorbic acid with L-galactono-1,4-oxidase” (Kraft, Inc., priority 1984, dated 1990):
At least one structure is not confirmed: it was looked up by name or label, or the drawing left a doubt.

Test system: Candida norvegensis
Assay: Assimilation tests (identification of the yeast)
Type: cell-based
Details: C. norvegensis MF-56, MF-78 and parent CBS 2145
From the text: The morphological, cultural and physiological characteristics of the mutant strain C. norvegensis Kraft, Inc. MF-56 ATCC 20686, the mutant strain C. norvegensis Kraft, Inc. MF-78 ATCC 20732, and the parent strain C. norvegensis CBS 2145 are consistent with the yeast description provided in The Yeasts, a taxononomic study (J. Lodder (Ed.) 1970, North Holland Publishing Co., Amsterdam) and A New Key to the Yeasts (J. A. Barnett & R. J. Parkhurst (Ed) 1974, North Holland Publishing Co., Amsterdam).

`OC[C@H]1O[C@H](O[C@@H]2[C@@H](O)[C@H](O)[C@@H](O)[C@H](O)[C@@H]2O)[C@H](O)[C@@H](O)[C@H]1O` [Galactinol] was tested, and the “Assimilation of carbon compounds” value was “-”.
